Reference: publication PMC5498334
Results are given in words; binding and its absence hold for the method and conditions named. For part of these data: In cells and extracts the contact can be indirect. Some entries that bind do so weakly or less than the wild type. For part of these data: Sequences can lack the tags named with a protein.

T1: CENP F (2461–2998 aa), expressed in COS-7 cells (mouse) (UniProt Q155P7)
T1 sequence: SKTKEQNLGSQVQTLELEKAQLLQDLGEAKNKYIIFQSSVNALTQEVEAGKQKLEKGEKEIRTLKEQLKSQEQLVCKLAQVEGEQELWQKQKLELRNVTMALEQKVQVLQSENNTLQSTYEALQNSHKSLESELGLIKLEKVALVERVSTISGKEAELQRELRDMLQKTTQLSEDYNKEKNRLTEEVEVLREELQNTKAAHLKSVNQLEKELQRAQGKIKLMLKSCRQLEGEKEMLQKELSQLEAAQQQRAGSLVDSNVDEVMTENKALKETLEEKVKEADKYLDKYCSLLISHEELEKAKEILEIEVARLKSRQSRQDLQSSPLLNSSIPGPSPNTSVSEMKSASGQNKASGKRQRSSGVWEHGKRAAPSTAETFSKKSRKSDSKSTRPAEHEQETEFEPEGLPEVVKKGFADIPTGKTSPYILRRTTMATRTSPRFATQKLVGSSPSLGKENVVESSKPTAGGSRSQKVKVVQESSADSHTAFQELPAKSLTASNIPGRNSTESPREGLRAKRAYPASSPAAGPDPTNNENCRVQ

T2: CENP J (891–1160 aa), expressed in COS-7 cells (mouse) (UniProt Q569L8)
T2 sequence: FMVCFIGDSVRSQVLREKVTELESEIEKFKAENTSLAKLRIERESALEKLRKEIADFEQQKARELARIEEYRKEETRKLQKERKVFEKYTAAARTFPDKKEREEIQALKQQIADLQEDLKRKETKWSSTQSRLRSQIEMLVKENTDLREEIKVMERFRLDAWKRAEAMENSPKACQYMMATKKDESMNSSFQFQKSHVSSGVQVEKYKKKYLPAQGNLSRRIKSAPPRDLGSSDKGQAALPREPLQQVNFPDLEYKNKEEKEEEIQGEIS

T3: CENP F (2461–2998 aa), C-terminal domain, yeast two-hybrid bait (mouse) (UniProt Q155P7)
T3 sequence: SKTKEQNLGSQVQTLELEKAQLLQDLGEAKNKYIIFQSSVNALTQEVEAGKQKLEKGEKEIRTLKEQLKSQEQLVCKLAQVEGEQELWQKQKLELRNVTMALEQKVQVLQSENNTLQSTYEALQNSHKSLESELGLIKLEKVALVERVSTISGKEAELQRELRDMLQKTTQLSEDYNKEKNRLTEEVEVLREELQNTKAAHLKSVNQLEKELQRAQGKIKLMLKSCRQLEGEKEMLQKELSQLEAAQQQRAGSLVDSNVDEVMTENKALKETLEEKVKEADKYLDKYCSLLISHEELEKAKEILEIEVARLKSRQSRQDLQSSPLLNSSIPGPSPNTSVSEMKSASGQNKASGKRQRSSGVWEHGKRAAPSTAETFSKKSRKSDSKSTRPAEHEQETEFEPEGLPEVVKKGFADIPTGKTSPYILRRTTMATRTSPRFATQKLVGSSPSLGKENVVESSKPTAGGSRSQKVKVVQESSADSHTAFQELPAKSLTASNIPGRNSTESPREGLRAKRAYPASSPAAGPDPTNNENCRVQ

T4: CENP J (891–1160 aa), C-terminal coiled coil region, yeast two-hybrid bait (mouse) (UniProt Q569L8)
T4 sequence: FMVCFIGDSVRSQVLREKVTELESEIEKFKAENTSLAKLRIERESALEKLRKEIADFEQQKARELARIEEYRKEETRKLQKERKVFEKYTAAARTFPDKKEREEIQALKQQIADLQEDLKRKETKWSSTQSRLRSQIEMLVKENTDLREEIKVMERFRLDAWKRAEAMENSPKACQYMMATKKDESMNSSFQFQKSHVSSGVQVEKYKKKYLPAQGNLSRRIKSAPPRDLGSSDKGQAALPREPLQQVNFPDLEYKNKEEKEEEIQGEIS


What was measured:
[1] = target: T1, CENP F (2461–2998 aa), expressed in COS-7 cells (mouse); assay: co-IP; co-transfection and immunoprecipitation in COS-7 cells, Western blot
[2] = target: T2, CENP J (891–1160 aa), expressed in COS-7 cells (mouse); assay: as above
[3] = target: T3, CENP F (2461–2998 aa), C-terminal domain, yeast two-hybrid bait (mouse); assay: two-hybrid; CENP J or CENP F constructs as bait, mSYCP2 NTR, ARLD or SLD as prey (by the legend); p53-T antigen and lam-T as system controls
[4] = target: CENP F wild type (1–2998 aa), yeast two-hybrid bait (mouse) (UniProt Q155P7); assay: as above
[5] = target: T4, CENP J (891–1160 aa), C-terminal coiled coil region, yeast two-hybrid bait (mouse); assay: as above
[6] = target: CENP J wild type (1–1344 aa), yeast two-hybrid bait (mouse) (UniProt Q569L8); assay: as above

binding [1]	binding [2]	binding [3]	binding [4]	binding [5]	binding [6]	Binder
binds	binds					SYCP2 NTD-8x Myc (domain or fragment, UniProt Q9CUU3 1-390) MPVRPDLQQLEKCIDDALRKNDFKPLLALLQIDICEDVKIKCSKQFLRKLDDLICRELNKKDIQTVSSILISIGRCSKNIFILGQAGLQTMIKQGLVQKMVSWFENSKEIILNQQQSKDEAVMNMIEDLFDLLMVIYDISDEGKNQVLESFIPQICALVIDSRVNFCIQQEALKKMNLMLDRIPQDANKILSNQEMLTLMSNMGERILDVGDYELQVGIVEALCRMTTEKRRQELAYEWFSMDFIANAFKEIKDCEFETDCRIFLNLVNGILGDKRRVYTFPCLSAFLGKYELQIPSDEKLEEFWIDFNLGSHTLSFYIAGDEEDHQWEAVTVPEEKVQMYNIEVRESKKLLTLTLKNIVKISKKEGKELLFYFDESLEITNVTKKVFGG
		binds	binds weakly	binds	binds	mouse SYCP2 N-terminal region (1–390 aa), yeast two-hybrid prey (domain or fragment, UniProt Q9CUU3 1-390) MPVRPDLQQLEKCIDDALRKNDFKPLLALLQIDICEDVKIKCSKQFLRKLDDLICRELNKKDIQTVSSILISIGRCSKNIFILGQAGLQTMIKQGLVQKMVSWFENSKEIILNQQQSKDEAVMNMIEDLFDLLMVIYDISDEGKNQVLESFIPQICALVIDSRVNFCIQQEALKKMNLMLDRIPQDANKILSNQEMLTLMSNMGERILDVGDYELQVGIVEALCRMTTEKRRQELAYEWFSMDFIANAFKEIKDCEFETDCRIFLNLVNGILGDKRRVYTFPCLSAFLGKYELQIPSDEKLEEFWIDFNLGSHTLSFYIAGDEEDHQWEAVTVPEEKVQMYNIEVRESKKLLTLTLKNIVKISKKEGKELLFYFDESLEITNVTKKVFGG
